PubChem BioAssay AID1259308, NCATS, 2017

Test: 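Candidate targets for better recombinant protein yield in mammalian cells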 (primary screen)
Cells: human HEK293 embryonic kidney cells stably expressing firefly luciferase (HEK-CMV-Luc2-Hygro)
Knock-down reagent: single siRNA against human genes, 0.8 pmol siRNA per well
Timing: 72 h
Measurement: 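Luciferase light (ONE-Glo) measured on one replicate plate set and viability (CellTiter-Glo) on the other, scaled to a negative control siRNA, with robust z-scores and luciferase per cell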
Scale: total luciferase, z-score and total luciferase, % of control: higher = more reporter protein produced; luciferase per cell, z-score: higher = more reporter output per viable cell; viable cells, % of control: higher = more viable cells
Rule for the call: 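An siRNA counts as active if its total luciferase robust z-score exceeds 3; genes with two or more such siRNAs out of three were retested with fresh siRNAs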
Meaning of the calls: active = raised luciferase; inactive = no rise
The deposit covers about 59,000 reagents; shown is an unselected part. Over the whole deposit, about 1,510 (2.6%) are marked active. 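Calls use total luciferase alone and ignore viability, so some active siRNAs may act by altering cell number.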 Unmarked entries are inactive. The numbers tell different reagents against one gene apart.

| gene symbol | reagent no. | total luciferase, z-score | total luciferase, % of control | luciferase per cell, z-score | viable cells, % of control |
| --- | --- | --- | --- | --- | --- |
| PDCD6 | 1 | 0.0363 | 82.6 | 0.433 | 82.4 |
| PDCD6 | 2 | -0.753 | 66.9 | -0.516 | 85.7 |
| PDCD6 | 3 | -0.509 | 71.8 | 0.0947 | 78.2 |
| LINC00632 | 1 | 4.56 (active) | 173 | 2.85 | 91.2 |
| LINC00632 | 2 | 1.48 | 111 | 1.12 | 92.5 |
| LINC00632 | 3 | 1.36 | 109 | 0.925 | 95.4 |
| ISLR2 | 1 | -2.98 | 22.7 | -3.74 | 67.8 |
| ISLR2 | 2 | -2.58 | 30.6 | -2.98 | 74.9 |
| ISLR2 | 3 | 0.439 | 90.6 | 0.0493 | 100 |
| KIF26B | 1 | 0.129 | 84.4 | 0.0492 | 93.2 |
| KIF26B | 2 | 0.0694 | 83.3 | -0.0508 | 94.3 |
| KIF26B | 3 | -0.262 | 76.7 | -0.397 | 95.1 |
| TOPAZ1 | 1 | -0.244 | 77 | -0.274 | 92.5 |
| TOPAZ1 | 2 | 1.43 | 110 | 1.92 | 74.4 |
| TOPAZ1 | 3 | -1.16 | 58.9 | -1.82 | 106 |
| ZNF665 | 1 | -0.547 | 71 | -0.732 | 96.2 |
| ZNF665 | 2 | 1.03 | 102 | 0.609 | 97.5 |
| ZNF665 | 3 | 0.511 | 92 | 1.04 | 78.3 |
| PCSK1N | 1 | -1.01 | 61.9 | -0.965 | 89.1 |
| PCSK1N | 2 | -0.801 | 66 | -1.18 | 101 |
| PCSK1N | 3 | -0.684 | 68.3 | -0.704 | 91.8 |
| HLA-G | 1 | 3.5 (active) | 152 | 2.39 | 90.2 |
| HLA-G | 2 | -0.354 | 74.8 | -0.142 | 86.8 |
| HLA-G | 3 | -2.62 | 29.7 | -3.72 | 88.3 |
| GLIPR2 | 1 | -0.00828 | 81.7 | 0.132 | 88.2 |
| GLIPR2 | 2 | 2.3 | 128 | 1.81 | 88.4 |
| GLIPR2 | 3 | -0.951 | 63 | 0.547 | 60.9 |
| IFIT3 | 1 | -0.483 | 72.3 | -1.28 | 113 |
| IFIT3 | 2 | -0.114 | 79.6 | 0.755 | 72.9 |
| IFIT3 | 3 | 3.88 (active) | 159 | 2.17 | 100 |
| LAMB2 | 1 | 1.69 | 116 | 1.45 | 88.1 |
| LAMB2 | 2 | 2.16 | 125 | 4.77 | 39.8 |
| LAMB2 | 3 | -0.22 | 77.5 | -0.265 | 92.9 |
| FAAHP1 | 1 | -0.843 | 65.1 | -0.823 | 90.4 |
| FAAHP1 | 2 | -0.293 | 76.1 | 0.811 | 68.6 |
| FAAHP1 | 3 | -0.177 | 78.4 | 0.873 | 69.6 |
| CLTB | 1 | -0.715 | 67.7 | -0.898 | 95.8 |
| CLTB | 2 | -2.86 | 25 | -2.56 | 54.9 |
| CLTB | 3 | -0.0471 | 81 | 0.286 | 83.9 |
| ZBED5-AS1 | 1 | 0.717 | 96.2 | 0.886 | 85.1 |
| ZBED5-AS1 | 2 | 0.0272 | 82.4 | -0.31 | 99.9 |
| ZBED5-AS1 | 3 | 0.175 | 85.4 | -0.62 | 112 |
| LINC01257 | 1 | 0.759 | 97 | 0.432 | 96.7 |
| LINC01257 | 2 | 3.53 (active) | 152 | 3 | 77.2 |
| LINC01257 | 3 | -0.258 | 76.8 | -0.356 | 94.2 |
| MME | 1 | 0.841 | 98.6 | 0.179 | 105 |
| MME | 2 | -1.8 | 46.1 | -0.264 | 55.2 |
| MME | 3 | 3.31 (active) | 148 | 3.18 | 71.5 |
| OR8A1 | 1 | -0.364 | 74.7 | -0.139 | 86.5 |
| OR8A1 | 2 | 0.515 | 92.1 | -0.291 | 111 |
| OR8A1 | 3 | 0.75 | 96.8 | 1.24 | 78 |
| PCTP | 1 | 0.77 | 97.2 | 0.489 | 95.5 |
| PCTP | 2 | 1.04 | 103 | 0.175 | 109 |
| PCTP | 3 | 0.474 | 91.3 | 0.219 | 96.3 |
| BTN3A1 | 1 | 0.0781 | 83.4 | -0.21 | 98.5 |
| BTN3A1 | 2 | 0.306 | 88 | 0.0896 | 96 |
| BTN3A1 | 3 | -0.113 | 79.6 | -0.46 | 100 |

Part of the list above, reformatted:
PDCD6 #3
- total luciferase, z-score: -0.509
- total luciferase, % of control: 71.8
- luciferase per cell, z-score: 0.0947
- viable cells, % of control: 78.2

LINC00632 #1
- total luciferase, z-score: 4.56 (active)
- total luciferase, % of control: 173
- luciferase per cell, z-score: 2.85
- viable cells, % of control: 91.2

LINC00632 #2
- total luciferase, z-score: 1.48
- total luciferase, % of control: 111
- luciferase per cell, z-score: 1.12
- viable cells, % of control: 92.5

LINC00632 #3
- total luciferase, z-score: 1.36
- total luciferase, % of control: 109
- luciferase per cell, z-score: 0.925
- viable cells, % of control: 95.4

ISLR2 #1
- total luciferase, z-score: -2.98
- total luciferase, % of control: 22.7
- luciferase per cell, z-score: -3.74
- viable cells, % of control: 67.8

ISLR2 #2
- total luciferase, z-score: -2.58
- total luciferase, % of control: 30.6
- luciferase per cell, z-score: -2.98
- viable cells, % of control: 74.9

ISLR2 #3
- total luciferase, z-score: 0.439
- total luciferase, % of control: 90.6
- luciferase per cell, z-score: 0.0493
- viable cells, % of control: 100

KIF26B #1
- total luciferase, z-score: 0.129
- total luciferase, % of control: 84.4
- luciferase per cell, z-score: 0.0492
- viable cells, % of control: 93.2
